Measurements published in patent US20180133257A1.
Results are given in words; binding and its absence hold for the method and conditions named. For some of these results: In cells and extracts the contact can be indirect. Some results given as binding are weak or reduced against the parent protein; the word gives no strength.

Experiments:
[1] = molecular target: T1, KAI1 (CD82), mouse (mouse) (UniProt P40237); test: fluorescence staining of Tie2-GFP mouse femur sections
T1 sequence: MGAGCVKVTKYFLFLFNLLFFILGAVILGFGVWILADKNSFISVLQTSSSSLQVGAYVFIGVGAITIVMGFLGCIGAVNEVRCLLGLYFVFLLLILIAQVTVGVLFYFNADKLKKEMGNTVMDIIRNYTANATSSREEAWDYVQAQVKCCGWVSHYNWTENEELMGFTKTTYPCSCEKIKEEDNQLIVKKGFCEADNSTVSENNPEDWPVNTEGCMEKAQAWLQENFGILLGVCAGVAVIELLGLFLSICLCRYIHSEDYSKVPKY

[2] = molecular target: T1, KAI1 (CD82), mouse (mouse); test: fluorescence staining of C57 mouse femur sections (CD150, KAI1, DARC)
[3] = molecular target: T1, KAI1 (CD82), mouse (mouse); test: co-immunoprecipitation from EML cells: IP with KAI1 antibody and Western blot of DARC, and the reverse
[4] = molecular target: T1, KAI1 (CD82), mouse (mouse); test: co-culture of mouse F4/80(+) cells and CFSE-tagged Lin(-) cells, fluorescence staining of KAI1 and DARC

Measured: binding

B1: Duffy antigen receptor for chemokines (DARC), mouse (receptor)
chain: MGNCLYPVENLSLDKNGTQFTFDSWNYSFEDNYSYELSSDYSLTPAAPCYSCNLLGRSSLPFFMLTSVLGMLASGGILFAILRPFFHWQICPSWPILAELAVGSALFSIAVPILAPGLHSAHSTALCNLGYWVWYTSAFAQALLIGCYACLNPRLNIGQLRGFTLGLSVGLWGAAALLGLPVALASDAYNGFCAFPSSRDMEALKYMHYAICFTIFTVLPPTLLAAKGLKIALSKGPGPWVSVLWIWFIFWWPHGMVLIFDALVRSKIVLLYTCQSQKILDAMLNVTEALSMLHCVATPLLLALFCHQTTRRSLSSLSLPTRQASQMDALAGKS
binds: all assays above
